According to PubChem BioAssay AID493014 (National Center for Advancing Translational Sciences (NCATS), 2011):
Some of the results follow. Shown are side measurements of this screen, not its main read-out; they come without a call. Most of these compounds were active or inconclusive in the main read-out, so they are no random draw. Potencies come from curve fits of mixed quality, noted in brackets.

Assay: qHTS Assay to Find Inhibitors of Chronic Active B-Cell Receptor Signaling
Conditions: ABC-DLBCL IkBa-CBG/CBR reporter, luminescence ratio (green luciferase fused to IkBa over red control in TMD8 lymphoma cells), 4 h
Outline: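 Cell line TMD8 (human ABC DLBCL), stably expressing tet-inducible CBG68-IkBa fusion and CBR; IMDM/0.5% FBS; cpd up to 46 uM; dox induction, 4 h, 37C/5% CO2; dual luminescence; green/red ratio; MG132 control.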

[1] = measured here: CBR red luminescence, cell number
[2] = measured here: IkBa-CBG green luminescence

SMILES | AC50 [1] | AC50 [2]
O=C1Nc2cc(C(=O)N3CCC(N4CCCCC4)CC3)ccc2S/C1=C\c1ccccc1 | 35.5 µM [falling, single point] | –
CC1(C)CSC(=NCCc2ccccc2)N1 | 0.282 µM [rising, full curve, poor fit] | –
Cc1cc(C(F)(F)F)n(-c2nc(C(=O)NNS(=O)(=O)c3ccccc3[N+](=O)[O-])cs2)n1 | 35.5 µM [falling, single point] | –
Fc1ccc(C2Nc3cccc4cccc(c34)N2)cc1 | 35.5 µM [falling, single point] | –
CC(=O)c1ccc2noc(-c3ccccc3)c2c1 | – | 15.8 µM [rising, partial curve, poor fit]
CCOC(=O)c1sc(NC(=O)c2cccs2)cc1C | 0.0651 µM [falling, full curve, poor fit] | –
COc1cc(/C=N/n2c(SC)nnc(C(C)(C)C)c2=O)ccc1O | 1.58 µM [rising, partial curve, poor fit] | –
COc1ccc(OCC2CCCN(Cc3nc(CC4CC4)no3)C2)cc1 (stereo unspecified) | 11.2 µM [falling, single point] | –
COC(=O)CCc1sc(Nc2ccccc2)nc1-c1ccc(OC)cc1 | 0.517 µM [falling, full curve, poor fit] | –
CC(=O)Nc1ccc(NC(=O)C(C)OC(=O)c2cc(S(=O)(=O)N(C)C)ccc2N2CCCC2)cc1 (stereo unspecified) | 23.1 µM [rising, partial curve] | –
Cn1nnc2c(NCCc3ccccc3)ncnc21 | 35.5 µM [falling, single point] | –
CCCN(CCC)CCCNC(=O)c1cc2c(=O)n(C)c3ccccc3c2n1C | 14.1 µM [falling, partial curve, poor fit] | –
O=C(NNC(=S)Nc1cccc(C(F)(F)F)c1)c1cccc(Cl)c1 | 32.6 µM [falling, single point] | –
Cc1ccc2nc3c(cc2c1)c(NC(=O)c1ccco1)nn3CC(C)C | 0.501 µM [falling, full curve] | –
Cc1cc(C)cc(NS(=O)(=O)c2ccc(Oc3ncc(C(F)(F)F)cc3Cl)cc2)c1 | 20.6 µM [falling, single point] | –
O=C(CSc1nnc(-c2ccccn2)o1)Nc1ccc(F)cc1 | 5.62 µM [falling, partial curve] | –
O=C(C1CCCO1)N1CCN(S(=O)(=O)c2ccc(F)cc2)CC1 (stereo unspecified) | 1.03 µM [falling, partial curve, poor fit] | –
Cc1ccc(CNC(=O)C2CCN(S(=O)(=O)N3CCC4(CC3)OCCO4)CC2)cc1 | 29.1 µM [rising, single point] | –
COc1cccc(/C=C2\SC(=S)N(CCC(=O)NC3C=CS(=O)(=O)C3)C2=O)c1 (stereo unspecified) | 10 µM [falling, partial curve] | –
COc1ccc(NC(=O)CC2SC(=O)NC2=O)cc1 (stereo unspecified) | 0.112 µM [rising, full curve, poor fit] | –
CC(C)COC(=O)n1c(SCC(N)=O)nc2ccccc21 | 10 µM [falling, partial curve, poor fit] | –

Among those listed so far, these have an aryl thioether with sulfur outside any ring:
SMILES | AC50 [1] | AC50 [2]
COc1cc(/C=N/n2c(SC)nnc(C(C)(C)C)c2=O)ccc1O | 1.58 µM [rising, partial curve, poor fit] | –
O=C(CSc1nnc(-c2ccccn2)o1)Nc1ccc(F)cc1 | 5.62 µM [falling, partial curve] | –
CC(C)COC(=O)n1c(SCC(N)=O)nc2ccccc21 | 10 µM [falling, partial curve, poor fit] | –

Further entries.

SMILES | AC50 [1] | AC50 [2]
O=C(COC(=O)c1cc([N+](=O)[O-])ccc1NCc1ccccc1)NC1CCCc2ccccc21 (stereo unspecified) | 6.51 µM [rising, single point] | –
CCN(CC(=O)NCc1cccs1)S(=O)(=O)c1ccccc1Cl | 23.1 µM [falling, partial curve, poor fit] | –
COC(=O)C(=C/C(C)=C/c1cccs1)C(=O)OC | 35.5 µM [falling, single point] | –
CC(=O)N(CCc1ccccc1)Cc1cc2cc(C)ccc2[nH]c1=O | 17.8 µM [rising, single point] | –
Cc1ccc(-c2[nH]c3cc(C(=O)NCCCn4ccnc4)ccc3c(=O)c2O)cc1 | 1.78 µM [falling, full curve, poor fit] | –
CN1C(=O)c2ccc(C(=O)Nc3ccccc3O)cc2C1=O | 8.91 µM [falling, partial curve] | –
Cc1cc(-c2nc3ncccc3o2)ccc1NC(=O)CC(C)C | 1.64 µM [falling, full curve, poor fit] | –
CCCCCCCNC(=O)COc1ccc2c(c1)C(=O)CC(C)(C)O2 | 29.1 µM [rising, single point] | –
CN(C(=O)CSc1nc2scc(-c3ccccc3)c2c(=O)[nH]1)c1ccccc1 | 0.13 µM [falling, full curve, poor fit] | –
N#CCC(=O)Nc1ccc(C(=O)OCC(=O)Nc2ccccc2-c2ccccc2)cc1 | 35.5 µM [falling, single point] | –
O=C(Cc1cccc2ccccc12)N/N=C/c1ccc(O)c([N+](=O)[O-])c1 | 31.6 µM [falling, single point] | –
O=C(Nc1ccccc1C(=O)O)c1cccc(NC(=O)c2ccc(Br)o2)c1 | 23.1 µM [falling, single point] | –
COc1ccc(C(=O)N2CCCC(O)C2)cc1OC1CCN(C(C)C)CC1 (stereo unspecified) | 2 µM [falling, partial curve, poor fit] | –
Cc1cc(N/N=C/c2ccccc2)nc(NCc2ccccc2)n1 | 11.6 µM [rising, partial curve, poor fit] | 32.6 µM [falling, partial curve, poor fit]
CCOc1ccc(Cl)cc1C1=CC(=O)C[C@H](c2ccc(OC)cc2)C1 | 1.3 µM [falling, full curve, poor fit] | 5.8 µM [falling, partial curve, poor fit]
CCCc1nc2c(nnn2Cc2ccccc2F)c(=O)[nH]1 | 29.1 µM [falling, single point] | –
Cc1cccc(NC(=O)c2oc(=O)c3ccccc3c2-c2ccccc2)c1C | 8.2 µM [rising, partial curve] | –
COc1ccccc1NC(=S)NC1CCCCCC1 | 2.06 µM [rising, partial curve, poor fit] | –
Cc1ccc(-c2nc3ccccc3c(=O)o2)cc1 | 7.94 µM [falling, partial curve, poor fit] | –
O=C(N/N=C/c1ccc(O)cc1)c1cncc(Br)c1 | 20 µM [falling, single point] | –
O=C(NNC(=O)c1cc2ccccc2o1)c1ccc(Cl)cc1 | 5.01 µM [falling, full curve, poor fit] | –

SMILES | AC50 [1] | AC50 [2]
CCOc1ccc2[nH]c(=O)c(CN(Cc3ccco3)C(CC)c3nnnn3Cc3ccccc3)cc2c1 (stereo unspecified) | 35.5 µM [falling, single point] | –
COC(=O)c1ccc(NC(=O)N2CCCC(C(=O)c3ccccc3OC)C2)cc1 (stereo unspecified) | 0.398 µM [falling, full curve, poor fit] | –
CN1CCN(NC(=O)c2cn(-c3ccccc3)nc2-c2cccc(Br)c2)CC1 | 31.6 µM [falling, single point] | –
c1ccc(CSc2nnc(-c3cccs3)n2Cc2ccco2)cc1 | 2.59 µM [falling, partial curve, poor fit] | –
COc1ccc(/C=C(\C#N)C(=O)OCCNC(=O)c2ccncc2)cc1 | 0.501 µM [falling, partial curve, poor fit] | –
Cc1ccc(NC(=O)COC(=O)C2CC2C)c(S(=O)(=O)N2CCCCC2)c1 (stereo unspecified) | 0.562 µM [rising, full curve, poor fit] | –
COc1ccc(C2C(C#N)=C(N)N(c3ncn[nH]3)C3=C2C(=O)CCC3)cc1 (stereo unspecified) | 1.26 µM [rising, full curve, poor fit] | –
CCOc1ccc(NC(=O)Nc2ccccc2C(N)=O)cc1 | 17.8 µM [falling, partial curve, poor fit] | –
Cc1c(Cl)cccc1NC(=O)CN1CCN(CCN=CC2=C(O)CC(c3ccccc3)CC2=O)CC1 (stereo unspecified) | 2.51 µM [falling, partial curve, poor fit] | –
Cc1ccc(OCC(=O)N/N=C/C=C/c2ccco2)c(Br)c1 | 12.6 µM [rising, single point] | 14.1 µM [falling, partial curve, poor fit]
Nc1ccc(C(=O)N2N=C(c3ccccc3)CC2(O)C(F)(F)F)cc1 (stereo unspecified) | 0.891 µM [falling, full curve, poor fit] | –
CC(=O)c1cccc(NC(=O)CNC(=O)c2cc3ccccc3o2)c1 | 20 µM [rising, partial curve, poor fit] | –
O=C(CN1c2ccccc2Sc2ccccc21)NNC(=O)Nc1ccc(Cl)cc1 | 7.08 µM [falling, partial curve] | –
CCN(CC(=O)Nc1c(F)cccc1F)C(=O)C1=COCCO1 | 16.4 µM [rising, single point] | –
Cn1c(/N=C/c2ccc3c(c2)OCO3)nc2ccccc21 | 17.8 µM [rising, partial curve, poor fit] | –
CC1CCCC(NC(=O)COC(=O)Cc2ccc(Br)cc2)C1C (stereo unspecified) | 35.5 µM [rising, single point] | –
Oc1ccc(-c2cnns2)c(O)c1 | 25.9 µM [falling, partial curve, poor fit] | –
CCCCN(CC)S(=O)(=O)N1CCC(C(=O)NCc2ccc(F)cc2)CC1 | 2.91 µM [rising, partial curve] | –
Cc1cc(C)c(NC(=O)CSc2nnc(CNC(=O)c3c(F)cccc3Cl)o2)c(C)c1 | 4.47 µM [rising, full curve, poor fit] | –
O=C1CCc2cc(NS(=O)(=O)c3ccc(F)cc3)cc3c2N1CC3 | 11.6 µM [falling, partial curve, poor fit] | –
CCc1nc2ccc(C(=O)N3CCN(c4ccccc4)CC3)cc2nc1CC | – | 14.1 µM [rising, partial curve, poor fit]
